Measured values as given in paper PMC9788671.

Sequences of proteins named here, by UniProt entry; tags and fusion partners are left off.
UniProt Q9NZV8: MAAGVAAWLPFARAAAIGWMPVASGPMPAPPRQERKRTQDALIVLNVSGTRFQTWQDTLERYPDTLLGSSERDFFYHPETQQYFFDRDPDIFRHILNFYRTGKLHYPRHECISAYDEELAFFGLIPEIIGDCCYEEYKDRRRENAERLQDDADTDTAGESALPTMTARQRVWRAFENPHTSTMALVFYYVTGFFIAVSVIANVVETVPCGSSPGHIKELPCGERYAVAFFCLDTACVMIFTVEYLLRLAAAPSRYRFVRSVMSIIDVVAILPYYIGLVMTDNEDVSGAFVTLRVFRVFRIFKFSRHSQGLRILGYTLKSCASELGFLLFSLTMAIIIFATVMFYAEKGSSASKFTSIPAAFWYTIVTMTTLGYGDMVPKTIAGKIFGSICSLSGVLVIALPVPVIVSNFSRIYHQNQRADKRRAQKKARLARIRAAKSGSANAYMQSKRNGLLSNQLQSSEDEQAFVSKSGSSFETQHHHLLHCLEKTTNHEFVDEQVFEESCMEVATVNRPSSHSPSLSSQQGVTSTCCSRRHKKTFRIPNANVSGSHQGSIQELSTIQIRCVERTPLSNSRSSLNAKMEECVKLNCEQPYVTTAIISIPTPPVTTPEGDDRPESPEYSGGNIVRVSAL

B1: Myo1b (protein, UniProt Q05096 1-1136)
chain: MAKKEVKSSLLDNMIGVGDTVLLEPLNEETFIDNLKKRFDHNEIYTYIGSVVISVNPYRSLPIYSPEKVEDYRNRNFYELSPHIFALSDEAYRSLRDQDKDQCILITGESGAGKTEASKLVMSYVAAVCGKGAEVNQVKEQLLQSTPVLEAFGNAKTVRNDNSSRFGKYMDIEFDFKGDPLGGVISNYLLEKSRVVKQPRGERNFHVFYQLLSGASEELLHKLKLERDFSRYNYLSLDSAKVNGVDDAANFRTVRNAMQIVGFSDPEAESVLEVVAAVLKLGNIEFKPESRMNGLDESKIKDKNELKEICELTSIDQVVLERAFSFRTVEAKQEKVSTTLNVAQAYYARDALAKNLYSRLFSWLVNRINESIKAQTKVRKKVMGVLDIYGFEIFEDNSFEQFIINYCNEKLQQIFIELTLKEEQEEYIREDIEWTHIDYFNNAIICDLIENNTNGILAMLDEECLRPGTVTDETFLEKLNQVCATHQHFESRMSKCSRFLNDTTLPHSCFRIQHYAGKVLYQVEGFVDKNNDLLYRDLSQAMWKAGHALIKSLFPEGNPAKVNLKRPPTAGSQFKASVATLMKNLQTKNPNYIRCIKPNDKKAAHIFSESLVCHQIRYLGLLENVRVRRAGYAFRQAYEPCLERYKMLCKQTWPHWKGPARSGVEVLFNELEIPVEEYSFGRSKIFIRNPRTLFQLEDLRKQRLEDLATLIQKIYRGWKCRTHFLLMKRSQVVIAAWYRRYAQQKRYQQIKSSALVIQSYIRGWKARKILRELKHQKRCKEAATTIAAYWHGTQARKERRRLKDEARNKHAIAVIWAFWLGSKARRELKRLKEEARRKHAVAVIWAYWLGLKVRREYRKFFRANAGKKIYEFTLQRIVQKYLLEMKNKMPSLSPIDKNWPSRPYLFLDSTHKELKRIFHLWRCKKYRDQFTDQQKLIYEEKLEASELFKDKKALYPSSVGQPFQGAYLEINKNPKYKKLKDAIEEKIIIAEVVNKINRANGKSTSRIFLLTNNNLLLADQKSGQIKSEVPLVDVTKVSMSSQNDGFFAVHLKEGSEAASKGDFLFSSDHLIEMATKLYRTTLSQTKQKLNIEISDEFLVQFRQDKVCVKFIQGNQKNGSVPTCKRKNNRLLEVAVP
B2: Sart1 (protein, UniProt Q5XIW8 1-806)
chain: MGSSKKHRGEKEAAGTTAAAGTGGTTEQPPRHREHKKHKHRSSGGGSSGGERRKRSRERGAERGSGRRGAEAEARSGAHGRERSQAEPSERRVKREKRDEGYEAAASSKASSGDASSLSIEETNKLRAKLGLKPLEVNAVKKEAGTKEEPVAADVINPMALRQREELREKLAAAKEKRLLNQKLGKIKTLGEDDPWLDDTAAWIERSRQLQKEKDLAEKRAKLLEEMDQEFGVSTLVEEEFEQRRQDLYSARDLQGLTVEHAIDSFREGETVVLTLKDKGVLQEGEDVLVNVNMVDKERADKNVELRKKKPDYLPYAEDESVDDLAQQKPRSILAKYDEELEGERPHSFRLEQGGMADGLRERELEEIRTKLRLQAQSLNTVGPRLASEYLSPEEMVTFKKTKRRVKKIRKKEKEVIMRADDLLPLGEDQTQDGDFGSRLRGRGRRRVPEVEEEALEDEEKDPVAQPPPSDDTRVENMDISDEEDGGALPSGPPELEEDEAELELQKQLEKGRRLRQLQQLQQLRDSGEKVLEIVKKLESRQRGWEEEEDPERKGTIVFNATSEFCRTLGEIPTYGLAGNREEQEELMDFERDEERSANGGSESDGEENIGWSTVNLDEEKQHQDFSASSTTILDEEPIVNRGLAAALLLCQNKGLLETTVQKVARVKAPNKSLPSAVYCIEDKMAIDDKYSRREEYRGFTQDFKEKDGYKPDVKIEYVDETGRKLTPKEAFRQLSHRFHGKGSGKMKTERRMKKLDEEALLKKMSSSDTPLGTVALLQEKQKAQKTPYIVLSGSGKSMNANTITK
B3: Flii (protein, UniProt Q5RKI5 1-1270)
chain: MEATGVLPFVRGVDLSGNDFKGGYFPENVKAMTSLRWLKLNRTGLCYLPEELAALQKLEHLSVSHNNLTTLHGELSSLPSLRAIVARANSLKNSGVPDDIFKLDDLSVLDLSHNQLTECPRELENAKNMLVLNLSHNSIDSIPNQLFINLTDLLYLDLSENRLESLPPQMRRLVHLQTLVLNGNPLLHAQLRQLPAMMALQTLHLRNTQRTQSNLPTSLEGLSNLSDVDLSCNDLTRVPECLYTLPNLHRLNLSSNQIAELSLCIDQWVHLETLNLSRNQLTSLPSAICKLTKLKKLYLNSNKLDFDGLPSGIGKLTSLEEFMAANNNLELIPESLCRCPKLRKLVLNKNRLVTLPEAIHFLTEIEVLDVRENPSLVMPPKPADHTAEWYNIDFSLQNQLRLAGASPATVAAAAAVGSGSKDPLARKMRLRRRKDSAQDVQAKQVLKGMSDVAQEKNKNQEESTDARAPGGKVRRWDQGLEKPRLDYSEFFTEDVGQLPGLTIWQIENFVPVLVEEAFHGKFYEADCYIVLKTFLDDSGSLNWEIYYWIGGEATLDKKACSAIHAVNLRNYLGAECRTAREEMGDESEGFLQVFDNDISYIEGGTASGFYTVEDTHYVTRMYRVYGKKNIKLEPVPLKGTSLDPRFVFLLDQGLDIYVWRGAQATLSNTTKARLFAEKMNKNERKGKAEITLLVQGQEPPEFWDVLGGEPSEIKKHVPDDFWPPQPKLYKVGLGLGYLELPQINYKLSVEHKKRPKVELMPGMRLLQSLLDTRCVYILDCWSDVFIWLGRKSPRLVRAAALKLGQELCGMLHRPRHTVVSRSLEGTEAQVFKAKFKNWDDVLTVDYTRNAEAVLQGPGISGKVKRDTEKKDQMKADLTALFLPRQPPMPLAEAEQLMEEWNEDLDGMEGFVLEGRKFTRLAEEEFGHFYTQDCYVFLCRYWVPVEYEEEEKPEDKEGKASAEGREEEEAAAETEEKQPEEDFQCIVYFWQGREASNMGWLTFTFSLQKKFESLFPGKLEVVRMTQQQENPKFLSHFKRKFIIHRGKRKVTQTLQPTLYQIRTNGSALCTRCIQINTDSSLLNSEFCFILKVPFESEDNQGIVYAWVGRASDPDEAKLAEDILNTMFDPSYSKQVINEGEEPENFFWVGIGAQKPYDDDAEYMKHTRLFRCSNEKGYFAVTEKCSDFCQDDLADDDIMLLDNGQEVYMWVGTQTSQVEIKLSLKACQVYIQHTRSKEHERPRRLRLVRKGNEQRAFTRCFHAWSTFRQAPA
B4: Ikbkap (protein, UniProt Q8VHU4 1-1331)
chain: MRNLKLHQTLEFRDIQAPGKPQCFCLRAEQGTVLIGSERGLTEVDPVKKEVKTEISLVAEGFLPEDGSGCIVGIQDLLDQESVCVATASGDVIVCNVSTQQLECVGNVASGISVMSWSPDQELLLLATAQQTLIMMTRDYEVITEQQIHQDDFGEGKFITVGWGSKDTQFHGSEGRPITFPVQMHESALSWDDHRPQITWRGDGQFFAVSVVCSQTGARKIRVWNREFALQSTSESVPGLGPSLAWKPSGSLIASTQDKPNQQDVVFFEKNGLLHGYFTLPFLKDEVKVNDLLWNADSSVLAVWLEDLPKEGSSTLKSYVQLWTVGNYHWYLKQSLPFSTTGKNQIVSLLWDPVTPGRLHVLCQGWRYLCCDWHWTTDRSSGNSADDLANVAVIDGNKVLVTVFQRTVTPPPMCTYRLLIPHPVNQVMSSAHLGNDLAVLDASNQISVYKCDDKPDMDSTVKLGAVGGTGFKVPLRTPHLEKRYRIQFGNKEEEEDVSPLQFRFLTWIEGDAFLAISHSHSSPQSIIHHLTMAGSEGDEEQGQLNVSSSVTVDGVVIGLCCCSKTKSSAVQLADGQVLKYLWESPSSAVEPWKNSEGRPVRFARPCTQMEAAAIGGEECVLGLTDRCRFFINDTEVASNITSFAVCDDFLLVTTHSHTCQCFSLSGASLKMLQAGLCGSQVPSGEILRKVERGSRIVTVVPQDTKLILQMPRGNLEVVHHRALVLAQIRKWLDKLMFKEAFECMRKLRINLNLIHDHNPKVFLENVETFIKQIDSVNHLNLFFTELKEEDVTKTMYPPPVTKSVQVSTNPDGKKVDLICDAMRVAMETINPRKFCLSILTSHVKKTTPELDIVLQKVHELQGKIPFVPESVSAEEALKYLLLLVDVNELFNHSLGTYDFDLVLMVAEKSQKDPKEYLPFLNTLKKMETNYQRFTIDKYLKRYEKALGHLSKCGPEYFTECLNLIKDKNLYKEALKLYRPDSPQYQAVSVAYGEHLVQELLYEPAGLVFARCGAHEKALEAFLACGSWQQALCMAAQLQMAKDKVAGLARTLAGKLVEQRKHSEAATVLEQYALDYEEAVLLLLEGSAWEEALRLVYKYDRVDIIETSVKPSILEAQKNYMDFLDSQTATFIRHKNRLKVVRELKSQRPRVHVDHEVAHGRETDLFSETSSIRSGSEMSGRYSHSNSRISARSSKNRRKAERKKHSLKEGSPLEGLALLEALSEVVQSIEKLKDEVHAILKVLFLFEFEEQARELQRAFESTLQLMGTALPDIWTLTGQQSSSTPVLGPSSTVNSIMASYQQQKTCVPVLDAWACLPPKIDQRSQWKLSLLE
B5: Dlgap4 (protein, UniProt P97839 1-992)
chain: MKGLGDSRPRHLSDSLDPPHEPLFAGPDRNPYLLSPTEAFAREARFPGQNTLPGDGLFPLNNQLPPPSSTFPRIHYNSHFEVPEESPFPSHAQATKINRLPANLLDQFEKQLPIHRDGFSTLQFPRGEAKARGESPGRIRHLVHSVQRLFFTKAPSMEGTTGKVGGNGGKKGVLEDGKGRRAKSKERAKAGEPKRRSRSNISGWWSSDDNLDGEGGAFRSGPASGLMTLGRQPERTQPRYFMHAYNTISGHMLKTTKNTTTELTAPPPPPAPPATCPSLGVGTDTNYVKRGSWSTLTLSHAHEVCQKTSATLDKSLLKSKSCHQGLAYHYLQVPGGGGEWSTTLLSPRDMDSTAEGPIPCRRMRSGSYIKAMGDEDSDESGGGSPKPSPKTAARRQSYLRATQQSLGEQSNPRRSLDRLDSVDMPLPSKYPSWEEDYNPISDSLNDSGCISQVFGQASLIPQLFGHDQQVREADLSDQYEAACESACSEAESTAAEALDLSLPSYFRSRSHSYLRAIQAGCSQEEDSVSLQSLSPPPSTGSLSNSRTLPSSSCLVAYKKTPPPVPPRTTSKPFISVTVQSSTESAQDTYLDSQDHKSEVTSQSGLSNSSDSLDSSTRPPSVTRGGITPGPEAPEPPPKHAALKSEHGTLTSSESHSEAVPKRKLSSIGIQVDCIQPVPKEEPSPATKFQSIGVQVEDDWRSSAPSHSMSSRRDTDSDTQDANDSSCKSSERSLPDCTSHPNSISIDAGPRQAPKIAQIKRNLSYGDNSDPALEASSLPPPDPWMETSSSSPAEPAQPGACRRDGYWFLKLLQAETERLEGWCCQMDKETKENNLSEEVLGKVLSAVGSAQLLMSQKFQQFRGICEQNLNPDANPRPTAQDLAGFWDLLQLSIEDISMKFDELYHLKANSWQLVETPEKRKEEKKPPPPVPKKPAKSKAAVSRDKASDAGDKQRQEARKRLLAAKRAASVRQNSATESADSIEIYVPEAQTRL

Target: TAP-Kv4.2 (human) (UniProt Q9NZV8)
Assay: affinity purification with mass spectrometry; TAP-Kv4.2 expressed by lentivirus in rat hippocampal neurons, harvested at DIV14; strong lysis buffer (1% Triton X-100, 0.5% deoxycholate in PBS, pH 7.4); streptavidin resin, then calmodulin resin; gel cut into high and low molecular weight fragments; no MS of the control sample

Binder	binding
B1	binds
B2	binds
B3	binds
B4	binds
B5	binds

Results are given in words; binding and its absence hold for the method and conditions named. In cells and extracts the contact can be indirect. Here binding means that the protein was enriched with, or labelled near, the bait; the list need not be complete.
